The text below walks through data of PubChem BioAssay AID1487 (National Center for Advancing Translational Sciences (NCATS), 2009).

SMILES strings stand for the structures. The list shows a part of the results. These are further read-outs of the screen, such as a control signal, another cell line or another target. No call is given for them. The list favours compounds with an active or inconclusive main result. Words in brackets tell the shape of the fitted curve; partial curves, single points and poor fits give uncertain potencies.

The test in a line: qHTS Assay for Modulators of Lamin A Splicing. To be noted: HeLa LMNA splicing GFP/RFP minigene ratio, 48 h. In short, it runs like this:
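S3 HeLa stable clones carrying a lamin A-EGFP splicing minigene plus DsRed2 were seeded at 600 cells/well in Opti-MEM with 2% FBS, pin-dosed and incubated 48 h at 37°C. Acumen cytometry (488 nm) gave the GFP/RFP total-intensity ratio.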
A general note: In qHTS, concentration-response curves come from the screen itself.

[1] abbreviates: measured here: GFP splicing reporter channel.
Setting [2] is: measured here: RFP viability control channel.

For the compound `Cc1ccc(N2C(=O)C3CCC(c4ccccc4)CC3C2=O)cc1` (configuration not stated), the half-maximal activity concentration (AC50) is 6.31 µM [rising, partial curve] under setting [1] and 11.2 µM [rising, partial curve] under setting [2].
For `CN(c1ccccc1)S(=O)(=O)c1cccc(NC(=O)Cn2cnc3ccccc3c2=O)c1`, the AC50 under setting [2] is 20 µM [rising, single point].
Consider `CCNS(=O)(=O)c1ccc(NC(=O)c2ccc(Cn3cc(Br)cn3)o2)cc1`, for which the AC50 under setting [1] was 12.6 µM [rising, partial curve] and the AC50 under setting [2] is 12.6 µM [rising, partial curve].
As for `N=c1n(CCN2CCCC2)c2ccccc2n1CC(O)c1ccc(Cl)c(Cl)c1` (configuration not stated), the AC50 under setting [1] is 10 µM [falling, single point].
On to `Nc1c(-c2ccccn2)cnn1-c1nc(-c2ccc(F)cc2)cs1`, for which the AC50 under setting [2] was 35.5 µM [falling, single point].
On the same count and under the same terms, next, `CCOC(=O)c1cnc(-n2nc(C)cc2C)nc1NNc1cc(C)nc(-c2ccccc2)n1`: 11.2 µM [rising, partial curve, poor fit].
`C=CCN(CC=C)C(=O)C1CC(=O)N(c2ccc(Br)cc2)C1` (configuration not stated): the AC50 under setting [1] is 35.5 µM [rising, single point].
Turning to `Cc1cccc(C)c1OCc1nc2ccccc2c(=O)n1/N=C/c1c[nH]c2ccccc12`, the AC50 under setting [1] is 35.5 µM [falling, single point].
In the case of `CC(C)CNC(=O)COc1ccc2c3c(c(=O)oc2c1)CCC3`, the AC50 reads like this: under setting [1], 0.562 µM [falling, full curve]; under setting [2], 0.708 µM [falling, full curve].
Turning to `CCCCCCCCCCCCCCCCCC(=O)NCC(COP(=O)([O-])OCC[N+](C)(C)C)OCC` (configuration not stated), the AC50 was 6.31 µM [falling, full curve] under setting [1] and 5.62 µM [falling, full curve] under setting [2].
Regarding `Cc1cc(C)c(C)c(S(=O)(=O)N2CCC(C(=O)Nc3ccccc3N3CCOCC3)CC2)c1C`, the AC50 is 14.1 µM [rising, single point] under setting [1] and 31.6 µM [rising, single point] under setting [2].
`Cc1c(Cl)ccc2c1NC(=O)[C@]21N[C@@H](CCC(N)=O)[C@H]2C(=O)N(c3ccc(F)cc3)C(=O)[C@H]21`: the AC50 is 12.6 µM [falling, partial curve, poor fit] under setting [1] and 14.1 µM [falling, single point] under setting [2].
As for `CCCn1cnc2cc(NCc3cccc(OC)c3O)ccc21`, the AC50 is 0.00447 µM [rising, full curve, poor fit] under setting [1] and 3.98 µM [rising, full curve, poor fit] under setting [2].
As to `O=C(O)Cc1csc(-c2ccc(F)cc2)n1`, under setting [2], the AC50 was 0.0631 µM [falling, full curve, poor fit].
For the compound `CCOC(=O)c1c(CC(C)C)csc1NC=O`, the AC50 under setting [1] was 35.5 µM [falling, single point] and the AC50 under setting [2] was 35.5 µM [falling, single point].
On to `O=C(CSc1nnnn1Cc1ccccc1)NC1CCCCC1`, for which the AC50 under setting [1] was 12.6 µM [rising, partial curve, poor fit].
For the compound `COc1ccccc1/C=C/C(=O)NC(=S)NC(C)C`, under setting [2], the AC50 was 35.5 µM [rising, single point].
For the compound `Cc1ccc(NC(=S)/N=C(\N)Nc2nc(C)c3cc(C)c(C)cc3n2)cc1C`, under setting [1], the AC50 was 7.94 µM [falling, partial curve].
For `COc1cc(/C=C/CN2CCN(Cc3ccc(C)o3)C(CCO)C2)ccc1O` (configuration not stated), the AC50 by setting is: under setting [1], 0.178 µM [rising, partial curve, poor fit]; under setting [2], 0.891 µM [rising, single point].
Consider `CNC(=S)N1CCc2cc(OC)c(OC)cc2C1COc1ccc(OC)cc1` (configuration not stated), for which the half-maximal activity concentration (AC50) under setting [1] is 0.282 µM [rising, full curve, poor fit].
Consider `CC1(C)Cc2c(c(N3CCOCC3)nc3sc4c(NN)ncnc4c23)CS1`, for which the AC50 under setting [2] is 11.2 µM [rising, single point].
Same read-out and setting: next, `NS(=O)(=O)c1ccc(NC(=O)COC(=O)c2ccc(Cl)nc2)cc1`: 4.47 µM [falling, full curve].
On the same count and under the same terms, next, `Cc1sc2nc(C(C)Nc3ccccc3N3CCOCC3)[nH]c(=O)c2c1C` (configuration not stated): 22.4 µM [rising, single point]; `COc1ccc(C)cc1S(=O)(=O)N(CC(=O)NCc1ccc(Cl)cc1)Cc1ccccc1`: 10 µM [rising, single point].
Consider `OCCC1CN(Cc2ccc(Oc3ncccn3)cc2)CCN1CCc1ccccc1` (configuration not stated), for which the AC50 under setting [2] was 1.12 µM [falling, partial curve, poor fit].
The same measure, in the same setting: under `Cc1nn(-c2ccccc2)c(Cl)c1C(=O)Nc1nnc(C2CCCC2)s1` stands 12.6 µM [rising, partial curve].
Regarding `CCN1C(=O)C(O)(C2COC(C)(C)CC2=O)c2cc(Br)ccc21` (configuration not stated), the AC50 by setting is: under setting [1], 8.91 µM [falling, partial curve]; under setting [2], 12.6 µM [falling, single point].
Regarding `COc1ccc2c(c1)C1(Nc3ccccc3-c3nc4ccccc4n31)C(=O)N2C` (configuration not stated), the half-maximal activity concentration (AC50) is, setting by setting: under setting [1], 35.5 µM [rising, single point]; under setting [2], 35.5 µM [rising, single point].
With `CC(C)(C)c1nn2cnnc2n(/N=C/c2ccccc2)c1=O`, under setting [2], the AC50 is 2.51 µM [rising, full curve, poor fit].
On the same count and under the same terms, next, `Cc1ccc(S(=O)(=O)Cc2ccc(C(=O)N3CCN(c4cc(C)ccc4C)CC3)o2)cc1`: 35.5 µM [rising, single point].
For `NCCCCCCNS(=O)(=O)c1cccc2c(Cl)cccc12`, the AC50 reads like this: under setting [1], 35.5 µM [falling, single point]; under setting [2], 35.5 µM [falling, single point].
Turning to `N#Cc1ncc(-c2ccc3c(c2)OCCOCCOCCOCCOCCO3)nc1C#N`, the AC50 is, setting by setting: under setting [1], 35.5 µM [rising, single point]; under setting [2], 35.5 µM [rising, single point].
On to `COc1ccccc1-c1nnc(NC(=O)c2ccc3c(c2)OCO3)s1`, for which the AC50 by setting is: under setting [1], 35.5 µM [falling, single point]; under setting [2], 3.98 µM [rising, single point].
`CC1(C)CC(=O)C2=C(C1)NC(Nc1nc3ccccc3o1)=NC2c1ccccn1` (configuration not stated): the AC50 under setting [2] was 31.6 µM [falling, partial curve].
On the same count and under the same terms, under `COc1ccc(C)cc1NC(=O)C(CCSC)NS(=O)(=O)c1ccc2c(c1)oc(=O)n2C` (configuration not stated) stands 0.0501 µM [falling, full curve, poor fit].
For the compound `COc1cc2c(cc1OC)C(C)N(C(=O)c1cc3c(s1)-c1c(C)cccc1OC3)CC2` (configuration not stated), the AC50 under setting [1] is 7.94 µM [rising, partial curve] and the half-maximal activity concentration (AC50) under setting [2] was 12.6 µM [rising, partial curve].
`COc1ccccc1OCc1nc(-c2ccc([N+](=O)[O-])cc2)no1`: the AC50 is 12.6 µM [rising, single point] under setting [1] and 20 µM [rising, single point] under setting [2].
As to `CCOC(=O)c1c(C)[nH]c(CCC(=O)Nc2ccc(N(CC)CC)cc2C)c1C`, the AC50 under setting [2] was 35.5 µM [rising, partial curve, poor fit].
As to `O=C(N=C1N=C2C=CC=CN2Cc2ccccc21)c1ccc(S(=O)(=O)N2CCOCC2)cc1`, the AC50 was 5.01 µM [falling, full curve, poor fit] under setting [1] and 8.91 µM [falling, partial curve, poor fit] under setting [2].
As to `O=C(N/N=C/c1sc2ccccc2c1O)c1ccccc1`, the AC50 under setting [2] is 20 µM [rising, partial curve, poor fit].
`CN1CC[C@H](CN2c3ccccc3Sc3ccccc32)C1`: the AC50 runs as follows: under setting [1], 0.0178 µM [falling, full curve, poor fit]; under setting [2], 3.16 µM [rising, partial curve, poor fit].
On to `CCCC(=O)Nc1ccc(C(=O)Nc2cccc(OC)c2)cc1`, for which the AC50 by setting is: under setting [1], 5.62 µM [rising, partial curve, poor fit]; under setting [2], 12.6 µM [rising, single point].
Regarding `O=C1C=C(c2ccccc2)OC(c2ccccc2)O1` (configuration not stated), the AC50 under setting [2] is 35.5 µM [falling, partial curve, poor fit].
On the same count and under the same terms, next, `Cc1ccc(C2C(C#N)=C(N)SC(N)=C2C#N)o1`: 35.5 µM [falling, single point]; `Cc1ccc(NC(=O)C(Nc2cccc(C)c2)c2ccccc2)cc1` (configuration not stated): 17.8 µM [rising, single point].
In the case of `Cc1ccc2nc(SC(Cc3cc(Cl)ccc3Cl)C(=O)O)[nH]c2c1` (configuration not stated), the AC50 under setting [1] is 39.8 µM [falling, partial curve, poor fit].
Consider `Cc1cc(Cl)ccc1NC(=O)C1CCN(S(=O)(=O)c2ccc3[nH]c(=O)ccc3c2)CC1`, for which the AC50 under setting [2] is 0.708 µM [falling, full curve, poor fit].
Still for that read-out and setting: next, `Cc1ccc(NC(=S)NCC(C)CSc2ccc(Cl)cc2)cc1` (configuration not stated): 35.5 µM [falling, single point].
As for `CCN(CC)C(=O)CSc1nnc([C@H](Cc2c[nH]c3ccccc23)NC(=O)OC(C)(C)C)o1`, the AC50 under setting [1] was 11.2 µM [rising, single point].
Regarding `O=C(CCOc1ccccc1)N(Cc1cccnc1)c1nc2c(Cl)cccc2s1`, the AC50 runs as follows: under setting [1], 14.1 µM [falling, partial curve, poor fit]; under setting [2], 15.8 µM [falling, partial curve, poor fit].
In the case of `CC(O)C(=O)O` (configuration not stated), the AC50 was 0.708 µM [falling, partial curve] under setting [1] and 6.31 µM [rising, single point] under setting [2].
On to `CN1CCc2cccc3c2[C@@H]1Cc1ccc(O)c(O)c1-3`, for which the AC50 under setting [2] is 35.5 µM [rising, single point].
In the case of `Cc1cccc(N2CCN(C(=O)c3ccc(N4CCCC4=O)cc3)CC2)c1C`, the AC50 under setting [2] was 25.1 µM [rising, partial curve].
Still for that read-out and setting: next, `Cc1nn(-c2ccccc2)c(Cl)c1/C=N/NC(=O)OC(C)(C)C`: 8.91 µM [rising, partial curve].
Take `CCOCCCNc1ncnc2c1[nH]c1ccccc12`: the AC50 was 31.6 µM [rising, single point] under setting [1] and 31.6 µM [rising, single point] under setting [2].

A word on the AC50: it is the midpoint of the concentration-response curve, whichever way the signal moves.
